Results deposited as PubChem BioAssay AID1508597 (Cure First, 2020)
This is an unselected part of about 2,100 reagents. 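Calls flag viability under 80% in either arm, not effects specific to rucaparib; the reference for percent is not stated.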 The record does not give: the 100% reference.

Purpose: 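Survival screen with siRNA in ovarian cancer cells derived from patients, with or without rucaparib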 (primary screen)
Cell system: human ovarian carcinoma lines grown from tumours: OCI-P5x (papillary serous) and OCI-C5x (clear cell)
Reagent: siRNA pool against human genes, 1.25 pmol siRNA per well
Duration: 72 h or 96 h, depending on the cell culture
Challenge: rucaparib 20 µM (about IC30) or vehicle, present until read-out
Measured: 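Luminescent ATP-based viability assay read 72 or 96 h after transfection, depending on culture, given as normalised percent viability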
Reading the numbers: viability, normalised: higher = more viable cells remaining
Hit rule: 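Active when normalised viability falls below 80 percent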
Calls: active = viability under 80%; inactive = viability 80% or more

PROX1 (GeneID 5629), rucaparib or vehicle Rucaparib, cell line OCI-C5x (clear cell), technical replicate 1 | viability, normalised (%): 38.1; Outcome: active
PROX1 (GeneID 5629), rucaparib or vehicle Rucaparib, cell line OCI-C5x (clear cell), technical replicate 2 | viability, normalised (%): 30.4; Outcome: active
PROX1 (GeneID 5629), rucaparib or vehicle Rucaparib, cell line OCI-C5x (clear cell), technical replicate 3 | viability, normalised (%): 35.8; Outcome: active
PROX1 (GeneID 5629), rucaparib or vehicle Rucaparib, cell line OCI-P5x (serous), technical replicate 1 | viability, normalised (%): 34.4; Outcome: active
PROX1 (GeneID 5629), rucaparib or vehicle Rucaparib, cell line OCI-P5x (serous), technical replicate 2 | viability, normalised (%): 60.9; Outcome: active
PROX1 (GeneID 5629), rucaparib or vehicle Rucaparib, cell line OCI-P5x (serous), technical replicate 3 | viability, normalised (%): 62.4; Outcome: active
PROX1 (GeneID 5629), rucaparib or vehicle Vehicle, cell line OCI-C5x (clear cell), technical replicate 1 | viability, normalised (%): 32.8; Outcome: active
PROX1 (GeneID 5629), rucaparib or vehicle Vehicle, cell line OCI-C5x (clear cell), technical replicate 2 | viability, normalised (%): 36; Outcome: active
PROX1 (GeneID 5629), rucaparib or vehicle Vehicle, cell line OCI-C5x (clear cell), technical replicate 3 | viability, normalised (%): 36.9; Outcome: active
PROX1 (GeneID 5629), rucaparib or vehicle Vehicle, cell line OCI-P5x (serous), technical replicate 1 | viability, normalised (%): 61.9; Outcome: active
PROX1 (GeneID 5629), rucaparib or vehicle Vehicle, cell line OCI-P5x (serous), technical replicate 2 | viability, normalised (%): 48.1; Outcome: active
PROX1 (GeneID 5629), rucaparib or vehicle Vehicle, cell line OCI-P5x (serous), technical replicate 3 | viability, normalised (%): 88.4; Outcome: inactive
PCK1 (GeneID 5105), rucaparib or vehicle Rucaparib, cell line OCI-C5x (clear cell), technical replicate 1 | viability, normalised (%): 59.5; Outcome: active
PCK1 (GeneID 5105), rucaparib or vehicle Rucaparib, cell line OCI-C5x (clear cell), technical replicate 2 | viability, normalised (%): 40; Outcome: active
PCK1 (GeneID 5105), rucaparib or vehicle Rucaparib, cell line OCI-C5x (clear cell), technical replicate 3 | viability, normalised (%): 60.8; Outcome: active
PCK1 (GeneID 5105), rucaparib or vehicle Rucaparib, cell line OCI-P5x (serous), technical replicate 1 | viability, normalised (%): 101; Outcome: inactive
PCK1 (GeneID 5105), rucaparib or vehicle Rucaparib, cell line OCI-P5x (serous), technical replicate 2 | viability, normalised (%): 80.1; Outcome: inactive
PCK1 (GeneID 5105), rucaparib or vehicle Rucaparib, cell line OCI-P5x (serous), technical replicate 3 | viability, normalised (%): 79.5; Outcome: active
PCK1 (GeneID 5105), rucaparib or vehicle Vehicle, cell line OCI-C5x (clear cell), technical replicate 1 | viability, normalised (%): 55.2; Outcome: active
PCK1 (GeneID 5105), rucaparib or vehicle Vehicle, cell line OCI-C5x (clear cell), technical replicate 2 | viability, normalised (%): 50.7; Outcome: active
PCK1 (GeneID 5105), rucaparib or vehicle Vehicle, cell line OCI-C5x (clear cell), technical replicate 3 | viability, normalised (%): 75.4; Outcome: active
PCK1 (GeneID 5105), rucaparib or vehicle Vehicle, cell line OCI-P5x (serous), technical replicate 1 | viability, normalised (%): 60.3; Outcome: active
PCK1 (GeneID 5105), rucaparib or vehicle Vehicle, cell line OCI-P5x (serous), technical replicate 2 | viability, normalised (%): 82.1; Outcome: inactive
PCK1 (GeneID 5105), rucaparib or vehicle Vehicle, cell line OCI-P5x (serous), technical replicate 3 | viability, normalised (%): 78.5; Outcome: active
SOX15 (GeneID 6665), rucaparib or vehicle Rucaparib, cell line OCI-C5x (clear cell), technical replicate 1 | viability, normalised (%): 32.1; Outcome: active
SOX15 (GeneID 6665), rucaparib or vehicle Rucaparib, cell line OCI-C5x (clear cell), technical replicate 2 | viability, normalised (%): 39.4; Outcome: active
SOX15 (GeneID 6665), rucaparib or vehicle Rucaparib, cell line OCI-C5x (clear cell), technical replicate 3 | viability, normalised (%): 46.7; Outcome: active
SOX15 (GeneID 6665), rucaparib or vehicle Rucaparib, cell line OCI-P5x (serous), technical replicate 1 | viability, normalised (%): 44.9; Outcome: active
SOX15 (GeneID 6665), rucaparib or vehicle Rucaparib, cell line OCI-P5x (serous), technical replicate 2 | viability, normalised (%): 56; Outcome: active
SOX15 (GeneID 6665), rucaparib or vehicle Rucaparib, cell line OCI-P5x (serous), technical replicate 3 | viability, normalised (%): 69; Outcome: active
SOX15 (GeneID 6665), rucaparib or vehicle Vehicle, cell line OCI-C5x (clear cell), technical replicate 1 | viability, normalised (%): 38.9; Outcome: active
SOX15 (GeneID 6665), rucaparib or vehicle Vehicle, cell line OCI-C5x (clear cell), technical replicate 2 | viability, normalised (%): 33.8; Outcome: active
SOX15 (GeneID 6665), rucaparib or vehicle Vehicle, cell line OCI-C5x (clear cell), technical replicate 3 | viability, normalised (%): 44; Outcome: active
SOX15 (GeneID 6665), rucaparib or vehicle Vehicle, cell line OCI-P5x (serous), technical replicate 1 | viability, normalised (%): 39.5; Outcome: active
SOX15 (GeneID 6665), rucaparib or vehicle Vehicle, cell line OCI-P5x (serous), technical replicate 2 | viability, normalised (%): 50.2; Outcome: active
SOX15 (GeneID 6665), rucaparib or vehicle Vehicle, cell line OCI-P5x (serous), technical replicate 3 | viability, normalised (%): 63.5; Outcome: active

Laid out differently: entries from further up
| gene knocked down | rucaparib or vehicle | cell line | technical replicate | viability, normalised (%) | Outcome |
| --- | --- | --- | --- | --- | --- |
| PROX1 (GeneID 5629) | Vehicle | OCI-P5x (serous) | 1 | 61.9 | active |
| PROX1 (GeneID 5629) | Vehicle | OCI-P5x (serous) | 2 | 48.1 | active |
| PROX1 (GeneID 5629) | Vehicle | OCI-P5x (serous) | 3 | 88.4 | inactive |
| PCK1 (GeneID 5105) | Rucaparib | OCI-C5x (clear cell) | 1 | 59.5 | active |
